Data from patent US20210147572A1, “ANTIBODIES AND METHODS OF USE THEREOF” (AbeXXa Biologics, Inc., priority 2017, published 2021).

System: TAP (−)
Assay: Peptide found on TAP (−) cells
Set-up: species or system human
Settings: peptide found or not found

Sequence	TAP (−)
QMFEGPLAL	found
TLFFQQNAL	found
SLLEKSLGL	found
MLALLTQVA	found
VLWDRTFSL	found
GLADKVYFL	found
TSDMPGTTL	found
